Laboratory results taken from patent publication US20160046678A1 (ZYNGENIA, published 2016).
Results are given in words; binding and its absence hold for the method and conditions named. Some results given as binding are weak or reduced against the parent protein; the word gives no strength.

Chains of the proteins cited; added tags and fusions are not shown. Residues count along the entry.
UniProt P08069, residues 31-932: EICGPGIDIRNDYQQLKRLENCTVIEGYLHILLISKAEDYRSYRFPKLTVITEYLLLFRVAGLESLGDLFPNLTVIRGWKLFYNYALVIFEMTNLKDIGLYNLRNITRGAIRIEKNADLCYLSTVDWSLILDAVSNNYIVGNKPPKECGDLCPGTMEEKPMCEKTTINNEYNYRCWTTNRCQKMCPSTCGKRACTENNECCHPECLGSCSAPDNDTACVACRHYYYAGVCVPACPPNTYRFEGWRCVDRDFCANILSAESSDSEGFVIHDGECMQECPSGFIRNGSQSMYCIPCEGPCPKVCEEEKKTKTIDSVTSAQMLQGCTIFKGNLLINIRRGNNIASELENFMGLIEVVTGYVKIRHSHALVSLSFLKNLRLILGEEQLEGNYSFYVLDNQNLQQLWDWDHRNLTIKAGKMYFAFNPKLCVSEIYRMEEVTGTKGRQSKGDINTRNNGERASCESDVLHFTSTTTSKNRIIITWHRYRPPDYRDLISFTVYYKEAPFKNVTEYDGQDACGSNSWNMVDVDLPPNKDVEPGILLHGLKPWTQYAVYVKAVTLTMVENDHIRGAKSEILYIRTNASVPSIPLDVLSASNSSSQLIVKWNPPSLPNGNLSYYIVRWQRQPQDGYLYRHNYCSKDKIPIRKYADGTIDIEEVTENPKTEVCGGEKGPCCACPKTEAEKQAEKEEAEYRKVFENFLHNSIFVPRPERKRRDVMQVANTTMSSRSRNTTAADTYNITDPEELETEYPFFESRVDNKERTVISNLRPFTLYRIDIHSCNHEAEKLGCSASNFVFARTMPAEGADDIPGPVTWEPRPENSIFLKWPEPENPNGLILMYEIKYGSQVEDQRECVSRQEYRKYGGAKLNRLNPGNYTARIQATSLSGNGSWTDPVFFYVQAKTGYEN

molecular target: IGF1R (UniProt P08069); test: MRD identification, Example 48

Binder | binding
LCSEFIELCFDQVPLR [IGF535] | binds
TSSALKLCQEFPELCF [IGF536] | binds
LSSYMLLCMEFSELCF [IGF537] | binds
YVIPHPLCLEFSELCF [IGF538] | binds
DPSVPALCHEFPELCF [IGF539] | binds
QGWTHPLCLEFQELCF [IGF540] | binds
FALVPSLCLEFNELCF [IGF541] | binds
MSSNSIKLCKEFPELCFHIHGKD [IGF542] | binds
LCLEFRELCFDLSEPH [IGF543] | binds
MRLESLELCKEFPELCFSTDLTL [IGF544] | binds
TMLEIPQLCKEFPELCFHDTTVW [IGF545] | binds
LCQEFKELCFEAEFQA [IGF546] | binds
KVTPFMLCQEFPELCF [IGF547] | binds
APGEHWLCLEFQELCF [IGF548] | binds
VFQMHPLCLEFPELCF [IGF549] | binds
YEPPHSLCLEFVELCF [IGF551] | binds
PPIMHPLCLEFAELCF [IGF552] | binds
LCAEFIELCFDLEPGI [IGF553] | binds
LSPEFPDLCLYFGLDC [IGF554] | binds
GSLSVPKLCKEFPELCFDKKMSG [IGF555] | binds
QRFEPDDLCKEFPELCFNLNMNV [IGF556] | binds
LCLEFAELCFGWDDNS [IGF557] | binds
RIYPSELCLEFAELCF [IGF559] | binds
QSYEHWLCQEFHELCF [IGF560] | binds
SSPPHWLCLEFEELCF [IGF561] | binds
RMSEMDLCAEFFELCF [IGF562] | binds
LCAEFHELCFDISNQE [IGF563] | binds

Binder | binding
LCFEFAELCFDTEFYN [IGF564] | binds
PRLCKEFPELCFEVPVIGNEEHYSL [IGF565] | binds
QGSKVLELCKEFPELCFDRANRL [IGF566] | binds
TLSPHPLCVEFPELCF [IGF567] | binds
SEWYHPLCVEFSELCF [IGF568] | binds
SAGEHWLCVEFQELCF [IGF569] | binds
LSPAELLCLDFPELCF [IGF570] | binds
LTPAERLCDEFPVLCF [IGF571] | binds
LCKEFPELCFDERDKK [IGF572] | binds
LTSADLLCSEFRELCF [IGF573] | binds
RITPNDLCQEFQELCF [IGF574] | binds
FAPPHPLCIEFQELCF [IGF575] | binds
VGKEVFRLCKEFPELCFYPAISQ [IGF577] | binds
LRFESPQLCKEFPELCFFESNGW [IGF578] | binds
YRAERPELCKEFPELCFFENDWW [IGF579] | binds
LCREFIELCFDIETEV [IGF580] | binds
RTVVPPLCLEFPELCF [IGF581] | binds
LYTPQSMCAEFTELCF [IGF582] | binds
GLVQHNLCLEFVELCF [IGF583] | binds
IDRPPDLCKEFPELCF [IGF584] | binds
VFLDAPELCKEFSELCFGYSDSL [IGF585] | binds
RFSESPPLCKEFPELCFWSPPFP [IGF586] | binds
RDFTYDTDWEGYSWLY [IGF589] | binds
IPGLCLEFPELCFHQW [IGF592] | binds
EPWEGYSWLY [IGF596] | binds
PLWEGYSWLYSQEAGN [IGF600] | binds

molecular target: T1, Angiopoietin-2 (Ang2) (human, UniProt O15123 19-496, biotin label in Examples 22-24); test: Example 48, method not detailed
T1 construct: also called rhAng2; recombinant Ang2
T1 sequence (looked up): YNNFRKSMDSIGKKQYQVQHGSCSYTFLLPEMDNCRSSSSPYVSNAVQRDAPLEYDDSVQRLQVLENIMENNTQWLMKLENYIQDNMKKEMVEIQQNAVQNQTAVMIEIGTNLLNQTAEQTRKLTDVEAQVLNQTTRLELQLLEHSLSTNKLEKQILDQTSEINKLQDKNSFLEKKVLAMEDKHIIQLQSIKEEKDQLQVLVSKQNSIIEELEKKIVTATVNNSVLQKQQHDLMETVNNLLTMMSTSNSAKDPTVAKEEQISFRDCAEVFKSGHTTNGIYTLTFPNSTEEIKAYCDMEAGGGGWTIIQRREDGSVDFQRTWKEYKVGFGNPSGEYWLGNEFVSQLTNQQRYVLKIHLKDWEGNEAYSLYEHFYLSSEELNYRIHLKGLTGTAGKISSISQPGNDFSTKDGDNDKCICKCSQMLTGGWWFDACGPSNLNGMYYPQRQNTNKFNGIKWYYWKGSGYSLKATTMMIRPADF

Binder | binding
RALDCYFYPNPQHCYQGI [ANG944] | binds
SPHECYFYPNPPHCYADR [ANG945] | binds
DVQIEFDCYFYPNPPYCY [ANG946] | binds
YPMNSHDCYFYPNPPQCY [ANG947] | binds
SPAHCSYCPFPPNSCFCY [ANG948] | binds
LRLDLEECYWYPNPPYCK [ANG949] | binds
GSALLSDCYFYPNPPHCY [ANG951] | binds
SVLALEDCYFYPNPHHCY [ANG952] | binds
PTAVLMECYFYPNPDYCY [ANG954] | binds
YGTECYFYPNPAHCYSNE [ANG955] | binds
HWYFCPNPPNPPQCHLKW [ANG956] | binds
